{"source": "patent US20240180872A1", "about": "“METHODS AND COMPOUNDS OF CANNABIDIOL, MELATONIN AND AKBA FOR TREATING PANCREATIC CANCER” (priority 2021, published 2024)", "origin": "cited, not measured here", "settings": "cited from earlier work", "note": "Where two headings read alike, the source gives them in different places.", "data": [{"smiles": "COc1ccc2[nH]cc(CCNC(C)=O)c2c1", "note": "[MLT, N-[2-(5-methoxy-1H-indol-3-yl)ethyl]acetamide]", "values": [{"measurement": "solubility", "setting": "petroleum ether", "result": "very slightly soluble"}, {"measurement": "solubility", "setting": "water, ethanol, benzene, chloroform, methanol, DMSO, toluene, and dilute aqueous acid", "result": "soluble"}]}]}
